{"source": "patent US7049295B2", "about": "“Compounds and use thereof to modify transport across cell membranes” (Biotransys Limited, priority 1999, dated 2006)", "test_system": "HUVECs", "test": "Transcellular transport of horse radish peroxidase (HRP) across a cell monolayer on filter", "type": "cell-based, human", "settings": "+5 μM biovector", "experimental": "Transport of horse radish peroxidase (HRP) across a cellular membrane was measured using the apparatus shown schematically in FIG. 4, with the addition of biovectors (BVS1 etc). The apparatus comprises upper and lower compartments (1, 2 respectively) separated by a filter 3 on which the cells 4 are grown. HRP and biovectors are added to the medium in the upper compartment 1, and HRP is assayed in the lower compartment 2.\nTranscellular transport was determined as above for the HUVECs studies. […]"}
{"sequence": "AGIGALFLGFLGAAG [BVS16]", "values": [{"measurement": "Specific resistance Across monolayer", "value": ">350", "unit": "Ohms/cm^−2"}]}
{"sequence": "GVFVLGLFGFLA [BVS5]", "values": [{"measurement": "Specific resistance Across monolayer", "value": ">350", "unit": "Ohms/cm^−2"}]}
{"sequence": "GVFVLGFLGFLATAGS [BVS9]", "values": [{"measurement": "Specific resistance Across monolayer", "value": ">350", "unit": "Ohms/cm^−2"}]}
{"sequence": "AVGIGALFLGFLGAAG [BVS1]", "values": [{"measurement": "Specific resistance Across monolayer", "value": ">350", "unit": "Ohms/cm^−2"}]}
